These results are taken from the supplement of paper PMC6411743.

Protein sequences, listed by entry. Tags and fused reporters are not part of them. Lines headed by an entry give the natural chain unless they say otherwise; changes in a name come on top.
UniProt Q9Y6X4: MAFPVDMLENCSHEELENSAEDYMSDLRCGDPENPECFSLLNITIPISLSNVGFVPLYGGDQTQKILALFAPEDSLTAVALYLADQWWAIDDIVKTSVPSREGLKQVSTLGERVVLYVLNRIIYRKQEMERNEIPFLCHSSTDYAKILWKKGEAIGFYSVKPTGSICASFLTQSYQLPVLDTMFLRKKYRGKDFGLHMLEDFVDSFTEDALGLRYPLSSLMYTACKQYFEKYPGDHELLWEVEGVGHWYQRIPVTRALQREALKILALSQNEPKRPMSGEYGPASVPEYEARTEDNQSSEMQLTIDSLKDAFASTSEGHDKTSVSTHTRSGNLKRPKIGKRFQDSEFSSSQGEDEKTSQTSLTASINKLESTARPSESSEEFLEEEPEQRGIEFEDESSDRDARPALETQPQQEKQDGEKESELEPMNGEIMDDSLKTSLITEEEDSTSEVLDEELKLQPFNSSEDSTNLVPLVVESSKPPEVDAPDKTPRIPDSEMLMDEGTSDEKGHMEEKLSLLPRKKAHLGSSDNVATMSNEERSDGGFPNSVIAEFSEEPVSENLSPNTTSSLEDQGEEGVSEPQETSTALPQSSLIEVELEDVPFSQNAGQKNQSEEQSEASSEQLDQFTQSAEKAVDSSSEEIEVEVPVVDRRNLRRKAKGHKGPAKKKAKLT
UniProt Q92520: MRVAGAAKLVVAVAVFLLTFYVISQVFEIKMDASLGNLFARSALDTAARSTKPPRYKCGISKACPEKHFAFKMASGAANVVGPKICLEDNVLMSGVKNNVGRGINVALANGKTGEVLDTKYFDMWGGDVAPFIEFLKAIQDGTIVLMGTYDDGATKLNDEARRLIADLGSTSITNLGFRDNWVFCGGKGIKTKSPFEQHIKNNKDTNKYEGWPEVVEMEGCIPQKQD
UniProt Q9NZK5: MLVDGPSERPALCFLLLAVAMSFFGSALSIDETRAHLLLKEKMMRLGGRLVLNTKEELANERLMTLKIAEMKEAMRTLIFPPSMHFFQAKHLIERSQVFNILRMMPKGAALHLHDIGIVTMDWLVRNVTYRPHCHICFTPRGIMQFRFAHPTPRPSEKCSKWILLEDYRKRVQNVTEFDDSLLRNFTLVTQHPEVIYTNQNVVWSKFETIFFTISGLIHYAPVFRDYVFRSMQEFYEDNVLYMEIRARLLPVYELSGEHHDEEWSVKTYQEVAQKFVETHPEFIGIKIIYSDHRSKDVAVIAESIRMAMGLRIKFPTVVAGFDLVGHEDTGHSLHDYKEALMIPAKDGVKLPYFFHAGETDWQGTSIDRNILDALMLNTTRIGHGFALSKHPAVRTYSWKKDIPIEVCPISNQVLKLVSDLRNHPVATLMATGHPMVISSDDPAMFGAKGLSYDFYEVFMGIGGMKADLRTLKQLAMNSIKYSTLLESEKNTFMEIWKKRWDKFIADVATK
UniProt Q9Y483: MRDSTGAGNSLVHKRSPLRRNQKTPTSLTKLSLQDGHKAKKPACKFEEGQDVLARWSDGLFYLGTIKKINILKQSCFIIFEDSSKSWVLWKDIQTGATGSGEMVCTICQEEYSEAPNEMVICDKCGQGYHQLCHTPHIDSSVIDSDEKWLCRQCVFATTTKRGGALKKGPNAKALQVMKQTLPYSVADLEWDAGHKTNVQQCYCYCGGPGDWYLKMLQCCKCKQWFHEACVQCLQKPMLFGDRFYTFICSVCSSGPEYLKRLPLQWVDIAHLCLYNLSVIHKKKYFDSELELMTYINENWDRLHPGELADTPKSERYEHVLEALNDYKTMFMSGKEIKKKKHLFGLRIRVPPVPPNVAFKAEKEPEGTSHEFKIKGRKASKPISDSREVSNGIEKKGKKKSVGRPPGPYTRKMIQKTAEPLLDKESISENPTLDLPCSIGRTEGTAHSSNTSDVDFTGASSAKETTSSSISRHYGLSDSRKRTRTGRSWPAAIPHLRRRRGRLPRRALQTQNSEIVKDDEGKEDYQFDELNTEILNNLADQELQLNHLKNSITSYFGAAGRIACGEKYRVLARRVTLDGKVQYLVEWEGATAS
UniProt P31483: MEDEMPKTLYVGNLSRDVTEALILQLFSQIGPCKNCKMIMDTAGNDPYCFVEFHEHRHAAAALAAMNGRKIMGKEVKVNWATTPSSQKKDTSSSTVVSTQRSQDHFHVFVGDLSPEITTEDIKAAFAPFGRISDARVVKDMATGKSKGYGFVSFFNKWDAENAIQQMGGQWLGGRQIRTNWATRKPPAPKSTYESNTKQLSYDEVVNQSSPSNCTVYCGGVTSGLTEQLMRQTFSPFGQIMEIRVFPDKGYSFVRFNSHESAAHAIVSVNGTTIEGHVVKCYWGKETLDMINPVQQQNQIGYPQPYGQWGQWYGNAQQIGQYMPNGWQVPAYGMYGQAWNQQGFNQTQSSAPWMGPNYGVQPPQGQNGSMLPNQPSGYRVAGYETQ

Compound in this experiment: Nc1nc2c(ncn2[C@@H]2O[C@H](COP(=O)(O)OP(=O)(O)OP(=O)(O)O)[C@@H](O)[C@H]2O)c(=O)[nH]1 [guanosine triphosphate]
Kind of experiment: NP40-soluble protein abundance relative to vehicle (solubility fold change) (ratio); higher = more soluble protein in presence of GTP. Here is the method: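 Solubility proteome profiling in Jurkat crude lysate. Lysate was treated with Mg-GTP (0.1-10 mM) for 10 min at room temperature and 3 min at 37 °C, then solubilised with 0.8% NP40 and benzonase, followed by ultracentrifugation. Proteins were quantified by TMT10 LC-MS/MS; the value is the NP40-soluble abundance relative to the NP40-processed vehicle, from 3 independent experiments.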

± gives the standard deviation of the averaged measurements. This is one part of the list.

On to “D6RB01 and related entries (UniProt Q9Y6X4)”, for which the NP40-soluble protein abundance (concentration: 0.1mM) is 0.939 ± 0.15; the NP40-soluble protein abundance (concentration: 0.5mM) worked out at 0.949 ± 0.16; the NP40-soluble protein abundance (concentration: 1mM) came to 0.989 ± 0.14; the NP40-soluble protein abundance (concentration: 2mM) turned out to be 0.906 ± 0.16; the NP40-soluble protein abundance (concentration: 4mM) amounted to 0.913 ± 0.12; the NP40-soluble protein abundance (concentration: 6mM) turned out to be 0.918 ± 0.12. Moreover, the NP40-soluble protein abundance runs as follows: (concentration: 8mM) 0.939 ± 0.15; (concentration: 10mM) 0.959 ± 0.14.
For “C9JMN4 and related entries (UniProt Q92520)”, the NP40-soluble protein abundance reads like this: (concentration: 0.1mM) 0.881 ± 0.059; (concentration: 0.5mM) 0.874 ± 0.094; (concentration: 1mM) 0.886 ± 0.064; (concentration: 2mM) 0.861 ± 0.064; (concentration: 4mM) 0.858 ± 0.076; (concentration: 6mM) 0.856 ± 0.095. Also, the NP40-soluble protein abundance is, setting by setting: (concentration: 8mM) 0.82 ± 0.06; (concentration: 10mM) 0.891 ± 0.11.
With “B4E3Q4 and related entries (UniProt Q9NZK5)”, the NP40-soluble protein abundance is 0.977 ± 0.046 (concentration: 0.1mM); 0.9495 ± 0.0079 (concentration: 0.5mM); 0.9269 ± 0.0091 (concentration: 1mM); 0.954 ± 0.023 (concentration: 2mM); 0.954 ± 0.075 (concentration: 4mM); 0.941 ± 0.065 (concentration: 6mM). Moreover, the NP40-soluble protein abundance is, setting by setting: (concentration: 8mM) 0.867 ± 0.032; (concentration: 10mM) 0.878 ± 0.039.
On to “B4DZG1 and related entries (UniProt Q9Y483)”, for which the NP40-soluble protein abundance runs as follows: (concentration: 0.1mM) 1.11 ± 0.061; (concentration: 0.5mM) 1.09 ± 0.032; (concentration: 1mM) 1.16 ± 0.044; (concentration: 2mM) 1.26 ± 0.074; (concentration: 4mM) 1.4 ± 0.068; (concentration: 6mM) 1.45 ± 0.095. The NP40-soluble protein abundance (concentration: 8mM) was 1.64 ± 0.2 and the NP40-soluble protein abundance (concentration: 10mM) worked out at 1.78 ± 0.18.
Turning to “C9JTN7 and related entries (UniProt P31483)”, the NP40-soluble protein abundance came out at 0.993 ± 0.029 (concentration: 0.1mM); 1 ± 0.021 (concentration: 0.5mM); 0.983 ± 0.022 (concentration: 1mM); 0.904 ± 0.021 (concentration: 2mM); 0.899 ± 0.053 (concentration: 4mM); 0.918 ± 0.064 (concentration: 6mM). Further, the NP40-soluble protein abundance was found to be 0.9088 ± 0.0039 (concentration: 8mM) and 0.879 ± 0.036 (concentration: 10mM).
